Assay results: PubChem BioAssay AID493014 (National Center for Advancing Translational Sciences (NCATS), 2011)
Values joined by “and” are separate entries in the source; they are usually repeats but may differ in a detail not shown here. Equal entries are not always repeated. Screen size: about 340,000 compounds; about 170 (0.05%) were called active. Inconclusive means that the source gave no clear call. Such entries were picked first, then a sample of the others. The call rests on the fitted dose curve; in most records, active means well fitted inhibition curve with a large enough effect in the signal ratio, with a control signal flat (not every such curve was filed as active); inconclusive means small, poorly fitted or top-dose-only effect, or effect the other way, or a change in a side signal; inactive means flat fitted curve, though single readings scatter; the % refers to the signal ratio. A potency beside an inconclusive call is a rough fit, not a confirmed value.

Test: qHTS Assay to Find Inhibitors of Chronic Active B-Cell Receptor Signaling;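 on activity change, negative = inhibition: plate controls were basal doxycycline-induced cells for no effect and cells given 10 µM MG132 for full effect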
Settings: ABC-DLBCL IkBa-CBG/CBR reporter, luminescence ratio (green luciferase fused to IkBa over red control in TMD8 lymphoma cells), 4 h; activity change, negative = inhibition: at 46.1 µM (top of the series)
In short: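 Doxycycline induced both beetle luciferases in TMD8 lymphoma cells; IKK-driven degradation limits the IkappaBalpha-fused green signal, while red luminescence normalises for cell number and nonspecific effects. Compounds tested up to 46 uM, 4 hrs.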
Potency means the concentration at half of the fitted maximal effect.

Compound | activity change, negative = inhibition | Potency
Cc1nn(Cc2ccc(Cl)c(Cl)c2)c(C)c1NC(=O)c1cc(CC(C)C)on1 | inactive | –
COc1ccccc1Nc1nc(N)nc(CN2CCCCC2)n1 | inactive | –
O=C(Nc1ccc(F)c(Cl)c1)c1ccc2c(c1)OCO2 | – | inconclusive: 12.6 µM [falling, partial curve, poor fit]
COC(=O)CN1C(=O)c2cccc3cccc1c23 | inactive | –
Cc1cc(=O)oc2c(C)c(OCC(=O)Nc3cccnc3)ccc12 | inconclusive: -1.61% | –
COc1ccc(S(=O)(=O)N(C(=O)c2ccncc2)c2ccc(OC(=O)c3ccncc3)cc2)cc1 | – | inconclusive: 10 µM [cytotoxic, partial curve]
CC(=O)OC1CC2(C)/C(=N\O)CCC2C2CCc3cc(O)ccc3C12 (stereo not given) | inactive | –
COc1ccccc1C1/C(=C(/O)c2ccc(C)cc2)C(=O)C(=O)N1CCN1CCOCC1 (stereo not given) | – | inconclusive: 20.6 µM [falling, single point]
CN(C)C(=O)CSc1nnc(Cc2ccc3c(c2)OCO3)o1 | inactive | –
CCOC(=O)c1ccc(NC(=O)Cn2nc(C)c3ccccc3c2=O)cc1 | inactive | –
CCN(CC)S(=O)(=O)c1ccc2c(c1)nc(CCC(=O)OCC(=O)Nc1cc(Cl)cc(Cl)c1)n2C | inconclusive: 5.99% | –
Cc1ccc(S(=O)(=O)Nc2ccccc2C(=O)N2CCCCC2C)c(C)c1NS(C)(=O)=O (stereo not given) | inactive | –
CC(C)c1onc(C(=O)N2CCN(Cc3ccccc3)CC2)c1[N+](=O)[O-] | inconclusive: -11.4% | –
COc1cc(/C=N/NC(=O)c2cccc(C(=O)N/N=C/c3ccc(O)c(OC)c3)n2)ccc1O | inconclusive: -2.78% | –
CC(=O)Nc1ccc(/C=C(\C#N)C(=O)NC2CCCCC2C)cc1 (stereo not given) | – | inconclusive: 35.5 µM [falling, single point]
COc1cc2c(cc1OC)C(c1cccc(Br)c1)CC(=O)N2 (stereo not given) | – | inconclusive: 22.4 µM [falling, partial curve, poor fit]
COC(=O)c1c(NC(=O)C2CC=CCC2C(=O)O)sc2c1CCCCC2 (stereo not given) | inconclusive: 10.5% | –
CC1=C(C(N)=O)C(c2ccccc2)n2nc(-c3cccs3)nc2N1 (stereo not given) | inconclusive: 18.7% | –
CCOC(=O)N1CCN(C(=O)c2ccc(Cn3c(=S)[nH]c4cc(OCC)c(OCC)cc4c3=O)cc2)CC1 | inactive | –
COc1ccc(C2(O)CCN(CCCCOc3ccccc3)CC2)cc1 | inconclusive: 18.6% | –
O=Cc1ccc2noc(-c3ccc(F)cc3)c2c1 | inconclusive: 25.4% | –
Cn1c(-c2ccc(F)cc2)cnc1SCC(=O)Nc1ccccc1 | – | inconclusive: 12.6 µM [falling, partial curve]
CCC(=O)Nc1ccc(NC(=O)c2ccco2)cc1 | inactive | –
CC(C)=CCC1=C(OCC(=O)O)C(=O)c2ccccc2C1=O | inconclusive: 4.2% | –
Cc1cc(C)c(Nc2ncnc3c2cnn3C)c(C)c1 | – | inconclusive: 35.5 µM [falling, single point]
Cc1ccc(CCNC(=O)Cc2ccc(NC3=NC4CS(=O)(=O)CC4S3)cc2)cc1 (stereo not given) | inconclusive: -16.4% | –
CC1=C(C(=O)OCC2CCCO2)C(c2cccc(C(F)(F)F)c2)C2=C(CC(c3ccco3)CC2=O)N1 (stereo not given) | – | inconclusive: 11.6 µM [rising, partial curve, poor fit]

Fetched by structure from above:
Compound | activity change, negative = inhibition | Potency
Cn1c(-c2ccc(F)cc2)cnc1SCC(=O)Nc1ccccc1 | – | inconclusive: 12.6 µM [falling, partial curve]
COc1ccc(C2(O)CCN(CCCCOc3ccccc3)CC2)cc1 | inconclusive: 18.6% | –
Cc1nn(Cc2ccc(Cl)c(Cl)c2)c(C)c1NC(=O)c1cc(CC(C)C)on1 | inactive | –
Cc1cc(=O)oc2c(C)c(OCC(=O)Nc3cccnc3)ccc12 | inconclusive: -1.61% | –

The listing continues:

Compound | activity change, negative = inhibition | Potency
COc1cccc(NC(=S)N2CCCN(Cc3ccc(F)cc3)C2)c1 | inactive | –
CC(=O)Nc1ccc(NC(=O)C(C)Sc2nnc(C3CC3)n2-c2ccccc2)cc1 (stereo not given) | inactive | –
COc1ccc(S(=O)(=O)N2CCC(C(=O)Nc3ccc(F)cc3)CC2)c2cccnc12 | – | inconclusive: 35.5 µM [falling, single point]
CC(C(=O)Nc1ccc(O)cc1)c1cccc(C(=O)c2ccccc2)c1 (stereo not given) | inconclusive: -4.82% | –
O=C(COc1ccc([N+](=O)[O-])cc1)Nc1cccc(C(=O)Nc2ccccc2C(=O)O)c1 | – | inconclusive: 15.8 µM [falling, single point]
O=C(c1ccc(CS(=O)Cc2ccc(Cl)cc2)o1)N1CCN(c2ccccn2)CC1 (stereo not given) | inactive | –
COc1ccc(-c2noc(CCC(=O)NCCCN3CCN(c4ccccc4F)CC3)n2)cc1 | inactive | –
CCOc1ccc(NC(=S)N(CCCN2CCOCC2)Cc2cn(C)c3ccccc23)cc1 | inconclusive: 4.3% | –
Cc1cc(C)cc(NC(=O)CSc2nc3c(c(=O)[nH]2)CN(Cc2ccc(F)cc2)CC3)c1 | inconclusive: 5.82% | –
COC(=O)C1=C(C)N(C)C(C)=C(C(=O)OC)C1c1ccccn1 | inconclusive: -0.398% | –
C[C@]12CCC(O)CC1=CCC1C2CC[C@]2(C)/C(=N\NC(N)=S)CCC12 (stereo not given in full) | inactive | –
Cc1ccccc1COC(=O)c1nn(-c2ccccc2)nc1N | – | inconclusive: 0.562 µM [rising, full curve, poor fit]
O=C(COc1ccccc1O)NCCN1CCOCC1 | inconclusive: -1.23% | –
Nc1c(-c2cccc(Cl)c2)cnc2c(-c3ccccc3)cnn12 | inconclusive: 3.89% | –
CCN(C(=O)c1ccc(Cl)cc1[N+](=O)[O-])c1ccccc1C | inactive | –
FC(F)(F)c1ccc(CN2C[C@@H]3C(c4ccccc4)C4(c5cccnc5)CC3(C4)[C@H]2c2ccccc2)cc1 (stereo not given in full) | inconclusive: 0.199% | –
CCCCOC(=O)Cn1c(=O)n(CC(=O)OCCCC)c2ccccc21 | inactive | –
CCN1CCN(Cc2ccc(NC(=O)c3cc(NC(=O)N4CCNC4=O)cc(OC)c3)cc2C(F)(F)F)CC1 | inconclusive: -8.27% | –
COc1cccc(CC2(CO)CCCN(Cc3cn[nH]c3-c3ccc(F)cc3)C2)c1 (stereo not given) | inactive | –
CCOC(=O)c1cc2occc2n1Cc1c(F)cccc1Cl | inconclusive: 0.249% | –
COc1ccc(OCc2nc(-c3ccc(F)c(F)c3)cs2)cc1 | inconclusive: 11.5% | –
COc1ccccc1Nc1nc(N)nc(CSc2nccc(C)n2)n1 | inconclusive: 1.59% | –
Cn1nc(-c2ccc(C(=O)Nc3cccc(Cl)c3)cc2)c2ccccc2c1=O | inconclusive: 16.5% | –
COc1cc(/C=C/C(=O)O)cc(S(=O)(=O)NCc2ccc3c(c2)OCO3)c1OC | inconclusive: -3.87% | –
COc1ccc(-c2cc(=O)[nH][nH]2)cc1OC | – | inconclusive: 29.1 µM [rising, single point]
S=C(Nc1ccc(Cl)cc1)N(CCCN1CCOCC1)Cc1ccco1 | inconclusive: 7.93% | –

Compound | activity change, negative = inhibition | Potency
Cc1ccc2cc(C#N)c(N3CCCN(S(=O)(=O)c4ccc(F)cc4)CC3)nc2c1 | inconclusive: 12.2% | –
C/C(=N/Oc1nc(C)cc(C)n1)c1ccccc1 | – | inconclusive: 18.4 µM [falling, single point]
COc1ccccc1C(=O)Nc1ccnn1C1CCN(C)CC1 | inactive | –
S=C(N/N=C/c1cccs1)NC1CC2CCC1C2 (stereo not given) | inactive | –
COc1ccc(C2=CSC3=NCCN23)cc1[N+](=O)[O-] | inconclusive: -3.2% | –
CCCOC(=O)c1cccc(NC(=O)C(C)(C)C)c1 | inconclusive: 6.01% | –
NC(=O)COc1cccc(/C=N/NC(=O)c2ccc(-n3cccc3)cc2)c1 | inconclusive: -2.04% | –
COc1ccc(Cn2cc3c(-c4ccc(F)cc4)nnc-3c3cc(OC)c(OC)cc32)cc1 | – | inconclusive: 2.59 µM [rising, partial curve, poor fit]
FC(F)(F)c1cc(Sc2ccccc2)nc(-c2ccccn2)n1 | – | inconclusive: 17.8 µM [falling, partial curve, poor fit]
Cc1nc(=O)c(-c2ccccc2)c(C)n1-c1cccc(/C=C/C(=O)O)c1 | inactive | –
COCCCNC(=S)NCCCNc1nc2cc(C)cc(C)c2cc1C#N | inactive | –
O=S(=O)(NCCC1=CCCCC1)c1ccc(Br)cc1 | inactive | –
C=CCOc1cccc(C(=O)/C=C2/C(=O)Nc3ccccc32)c1 | inconclusive: 16.5% | –
CC(C)CC(=O)NC(=S)Nc1ccc(N2CCOCC2)c(Cl)c1 | inconclusive: 2.81% | –
Cc1ccc(N(CC(=O)N(C)Cc2ccccc2)S(C)(=O)=O)cc1C | inactive | –
CC(=O)Nc1cccc(-n2nnc(SCC(=O)Nc3ccc(F)c(Cl)c3)n2)c1 | inconclusive: -4.61% | –
O=C(Nc1nn(Cc2ccc(Cl)cc2)cc1Br)c1ccc(COc2ccccc2Cl)o1 | – | inconclusive: 11.6 µM [falling, partial curve]
Cc1cccc(NC(=O)[C@@H](NC(=O)[C@@H]2Cc3ccccc3CN2)C(C)C)c1 | – | inconclusive: 10 µM [falling, partial curve, poor fit]
Cc1ccc(OCCn2cnc(Cl)c2Cl)cc1 | inconclusive: 6.7% | –
O=C(O)CC(NC(=O)OCc1ccccc1)c1ccccc1 (stereo not given) | inconclusive: 6.75% | –
Cc1cccc(NC(=O)c2cc(-c3cc(Cl)ccc3O)n[nH]2)c1 | – | inconclusive: 20 µM [falling, partial curve]
C/C(CC(=O)Nc1ccc(N(C)C)cc1)=N\NC(=O)c1ccc(F)cc1 | – | inconclusive: 20 µM [falling, single point]
COc1ccc(S(=O)(=O)N2CCCCC2)cc1NC(=O)c1cccnc1SC | – | inconclusive: 2.82 µM [falling, full curve, poor fit]
O=C(Nc1ccsc1C(=O)N1CCCC1)c1ccccc1 | inactive | –
Nc1c(N(C(=O)Nc2ccc(Cl)c(Cl)c2)C2CCCC2)c(=O)[nH]c(=O)n1Cc1ccccc1 | inconclusive: -12.2% | –
COc1ccc(C(=O)CCN2CCN(c3ccc(OC)cc3)CC2)cc1 | inconclusive: -14.1% | –
